Measured values: paper PMC9691929
No constants are given. Whether binding was seen depends on the method and setting. Binding seen in cells or lysates may run through a third protein. Some entries that bind do so weakly or less than the wild type. Sequences can lack the tags named with a protein.

Target: T1, Hspa13 with a C-terminal Flag (human) (UniProt P48723)
T1 sequence: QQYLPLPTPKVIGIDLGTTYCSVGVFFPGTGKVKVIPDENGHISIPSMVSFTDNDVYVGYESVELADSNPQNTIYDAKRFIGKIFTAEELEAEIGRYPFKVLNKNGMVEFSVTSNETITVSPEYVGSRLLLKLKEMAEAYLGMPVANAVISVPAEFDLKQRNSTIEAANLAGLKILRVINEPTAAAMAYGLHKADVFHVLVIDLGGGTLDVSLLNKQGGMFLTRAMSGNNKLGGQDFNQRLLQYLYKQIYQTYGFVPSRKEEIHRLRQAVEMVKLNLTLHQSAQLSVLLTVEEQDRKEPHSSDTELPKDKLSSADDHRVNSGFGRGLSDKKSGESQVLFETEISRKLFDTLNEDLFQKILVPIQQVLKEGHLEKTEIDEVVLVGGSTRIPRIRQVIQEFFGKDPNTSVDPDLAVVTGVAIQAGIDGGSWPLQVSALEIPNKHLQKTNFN
Assay: co-IP; optimisation of DSP crosslinking before lysis and anti-Flag immunopurification of Hspa13^Flag from HEK293T; maximal recovery with 2 mM DSP for 30 min (Fig. S2B)

binding: binds
B1: Bcap31 (protein, UniProt P51572 1-246)
chain: MSLQWTAVATFLYAEVFVVLLLCIPFISPKRWQKIFKSRLVELLVSYGNTFFVVLIVILVLLVIDAVREIRKYDDVTEKVNLQNNPGAMEHFHMKLFRAQRNLYIAGFSLLLSFLLRRLVTLISQQATLLASNEAFKKQAESASEAAKKYMEENDQLKKGAAVDGGKLDVGNAEVKLEEENRSLKADLQKLKDELASTKQKLEKAENQVLAMRKQSEGLTKEYDRLLEEHAKLQAAVDGPMDKKEE
